The values below come from publication doi:10.1101/846121.

Amino acid sequences for entries named in this document (tags omitted). A change or cut given only in a name is not applied to a line headed by its entry.
UniProt Q02645: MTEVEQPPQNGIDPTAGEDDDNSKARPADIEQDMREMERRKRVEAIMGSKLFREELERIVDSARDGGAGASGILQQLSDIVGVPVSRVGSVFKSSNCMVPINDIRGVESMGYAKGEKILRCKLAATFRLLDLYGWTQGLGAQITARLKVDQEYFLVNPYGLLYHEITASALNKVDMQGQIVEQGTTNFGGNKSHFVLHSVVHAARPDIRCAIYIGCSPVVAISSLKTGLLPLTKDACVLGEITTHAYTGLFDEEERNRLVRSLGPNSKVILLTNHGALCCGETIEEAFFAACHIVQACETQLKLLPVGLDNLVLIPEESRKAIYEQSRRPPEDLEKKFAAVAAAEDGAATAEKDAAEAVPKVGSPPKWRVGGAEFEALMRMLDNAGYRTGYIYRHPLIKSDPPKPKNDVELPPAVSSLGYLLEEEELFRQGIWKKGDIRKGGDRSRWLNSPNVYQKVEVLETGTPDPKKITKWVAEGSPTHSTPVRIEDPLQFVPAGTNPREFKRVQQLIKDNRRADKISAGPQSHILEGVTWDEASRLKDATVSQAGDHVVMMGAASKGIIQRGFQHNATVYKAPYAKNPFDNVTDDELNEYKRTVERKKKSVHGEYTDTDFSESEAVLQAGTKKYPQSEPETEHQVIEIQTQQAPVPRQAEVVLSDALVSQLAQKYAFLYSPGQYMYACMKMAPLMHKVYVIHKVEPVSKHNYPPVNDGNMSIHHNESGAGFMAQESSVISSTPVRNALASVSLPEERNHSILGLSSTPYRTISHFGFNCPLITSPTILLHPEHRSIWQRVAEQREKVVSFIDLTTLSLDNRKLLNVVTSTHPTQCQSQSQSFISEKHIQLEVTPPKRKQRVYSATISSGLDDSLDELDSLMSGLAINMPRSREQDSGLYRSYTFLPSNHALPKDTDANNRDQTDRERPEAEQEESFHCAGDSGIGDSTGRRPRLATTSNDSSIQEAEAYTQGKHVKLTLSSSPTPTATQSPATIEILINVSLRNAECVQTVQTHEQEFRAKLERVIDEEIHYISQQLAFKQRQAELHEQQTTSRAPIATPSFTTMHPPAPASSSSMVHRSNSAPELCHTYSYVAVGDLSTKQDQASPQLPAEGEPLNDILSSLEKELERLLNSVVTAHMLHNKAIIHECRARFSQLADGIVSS

These are yes or no findings as the source states them, for the method shown. Binding seen in cells or lysates may run through a third protein. Binding can be weak; no strength is given.

For assay [1], the target named is T1, Discs large (Dlg) (Drosophila (endogenous in third instar larval body wall)) (UniProt P31007).
T1 sequence: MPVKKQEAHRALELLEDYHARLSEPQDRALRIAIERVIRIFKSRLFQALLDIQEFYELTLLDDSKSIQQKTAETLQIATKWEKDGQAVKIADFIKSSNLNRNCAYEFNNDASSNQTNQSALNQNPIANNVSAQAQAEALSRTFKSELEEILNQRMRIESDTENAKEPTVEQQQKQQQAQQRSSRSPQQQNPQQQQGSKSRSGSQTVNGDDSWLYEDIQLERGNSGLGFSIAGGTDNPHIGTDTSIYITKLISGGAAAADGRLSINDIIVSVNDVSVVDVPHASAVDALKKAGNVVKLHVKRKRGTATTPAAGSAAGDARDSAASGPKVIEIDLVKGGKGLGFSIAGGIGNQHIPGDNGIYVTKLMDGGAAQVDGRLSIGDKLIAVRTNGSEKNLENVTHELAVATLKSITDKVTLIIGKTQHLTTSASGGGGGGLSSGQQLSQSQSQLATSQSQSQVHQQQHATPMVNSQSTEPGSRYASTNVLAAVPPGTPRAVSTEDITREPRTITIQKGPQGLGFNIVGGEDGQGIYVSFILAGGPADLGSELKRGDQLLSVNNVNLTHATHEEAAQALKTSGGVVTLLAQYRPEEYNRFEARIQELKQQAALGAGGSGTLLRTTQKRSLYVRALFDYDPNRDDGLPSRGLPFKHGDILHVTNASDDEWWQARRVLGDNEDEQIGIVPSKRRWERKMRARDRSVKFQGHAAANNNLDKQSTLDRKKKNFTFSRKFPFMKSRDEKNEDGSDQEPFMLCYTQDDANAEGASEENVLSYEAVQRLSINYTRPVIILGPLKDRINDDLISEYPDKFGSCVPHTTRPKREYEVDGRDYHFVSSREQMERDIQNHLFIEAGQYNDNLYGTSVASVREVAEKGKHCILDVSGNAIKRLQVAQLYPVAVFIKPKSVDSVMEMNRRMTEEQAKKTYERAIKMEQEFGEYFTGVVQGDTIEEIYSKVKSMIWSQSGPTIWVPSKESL
The assay can be described thus: proximity ligation.

Assay [2] deals with Hu Li Tai Shao (Hts), Drosophila adducin (Drosophila (endogenous in third instar larval body wall)) (UniProt Q02645). Description: proximity ligation.

Take GluRIIB (receptor): the binding result in assay [1] was “binds”.

B1: Draper (Drpr) (receptor, UniProt Q9W0A0 17-1031)
chain: QADLKDLDGPNICKRRELYNVDVVYTELQSFQERGSTWCVTFPPRCSTYRIKHRVVNKTKTIAKNRIVRDCCDGYIASAGECVPHCSEPCQHGRCISPEKCKCDHGYGGPACDINCPPGWYGRNCSMQCDCLNNAVCEPFSGDCECAKGYTGARCADICPEGFFGANCSEKCRCENGGKCHHVSGECQCAPGFTGPLCDMRCPDGKHGAQCQQDCPCQNDGKCQPETGACMCNPGWTGDVCANKCPVGSYGPGCQESCECYKGAPCHHITGQCECPPGYRGERCFDECQLNTYGFNCSMTCDCANDAMCDRANGTCICNPGWTGAKCAERICEANKYGLDCNRTCECDMEHTDLCHPETGNCQCSIGWSSAQCTRPCTFLRYGPNCELTCNCKNGAKCSPVNGTCLCAPGWRGPTCEESCEPGTFGQDCALRCDCQNGAKCEPETGQCLCTAGWKNIKCDRPCDLNHFGQDCAKVCDCHNNAACNPQNGSCTCAAGWTGERCERKCDTGKFGHDCAQKCQCDFNNSLACDATNGRCVCKQDWGGVHCETNCRSGYYGENCDKVCRCLNNSSCDPDSGNCICSAGWTGADCAEPCPPGFYGMECKERCPEILHGNKSCDHITGEILCRTGYIGLTCEHPCPAGLYGPGCKLKCNCEHGGECNHVTGQCQCLPGWTGSNCNESCPTDTYGQGCAQRCRCVHHKVCRKADGMCICETGWSGTRCDEVCPEGFYGEHCMNTCACPSANFQCHAAHGCVCRSGYTGDNCDELIASQRIADQSENSSRASVALTLVLMTLFACIIFAVFIYYRRRVSNLKTEIAHVHYTHDTNPPSWPPNHNFDNPVYGMQAETRLLPNNMRSKMNNFDQRSTMSTDYGDDCNASGRVGSYSINYNHDLLTKNLNADRTNPIVYNESLKEEHVYDEIKHKEGYKDPDEYDHLDYSRPSTSQKPHYHRMNDAMLNINQDEEKPSNVKNMTVLLNKPLPPTEPEPQHECFDNTNTNLDNVSTASPSSSPKFLK
As for B1, the binding result in assay [2] is on record as “binds”.
